The target of the assay is T1, CD151 in JAM-A-deficient MDCKII cells (UniProt P48509).
T1 sequence: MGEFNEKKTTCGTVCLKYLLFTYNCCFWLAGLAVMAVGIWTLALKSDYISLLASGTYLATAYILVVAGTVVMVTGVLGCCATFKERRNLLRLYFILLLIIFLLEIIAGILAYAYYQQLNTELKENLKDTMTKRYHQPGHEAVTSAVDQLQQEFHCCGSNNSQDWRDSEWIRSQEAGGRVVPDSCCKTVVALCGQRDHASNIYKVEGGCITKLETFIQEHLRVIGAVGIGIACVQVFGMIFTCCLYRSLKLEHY
As to the kind of experiment: co-IP; JAM-A mutant constructs transfected into JAM-A-deficient MDCKII cells, co-IP with CD151 (Fig. 5C); who was precipitated is not stated.

The source of these data is PMC8784505.

Results are given in words; binding and its absence hold for the method and conditions named. Binding seen in cells or lysates may run through a third protein. Binding calls can cover weak binding; strength is not graded here.

As for hJAM-A/Δ40 (human) (domain or fragment), the binding result is listed as “binds”.
